Results deposited as PubChem BioAssay AID1259254 (NCATS, 2017)
Shown is one part, drawn at random, of about 59,000 reagents tested. Over the whole deposit, about 1,550 (2.6%) were called active. 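G2 share is only a proxy for re-replication; each gene was hit by three separate siRNAs, and active genes were retested.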 Raw values vary from plate to plate and are shown uncorrected. The numbers tell different reagents against one gene apart. Not stated in the record: the amount of reagent.

- Aim: 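Finding genes that stop cells copying their DNA twice in one cycle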 (primary screen)
- Cells: human HCT116 colorectal cancer cells
- Reagent: single siRNA against human genes
- Duration: 3 days
- Read-out: 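Imaged Hoechst DNA stain sorts each cell into a cycle phase by DNA amount; per plate, G2 fraction set to 0% for non-targeting and 100% for GMNN siRNA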
- Scale: G2 robust z-score and G2 cells, % of GMNN control: higher = more G2 cells, more excess DNA replication; raw share of cells in G2: higher = larger share of cells with G2 DNA content
- Active means: 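An siRNA counts as active if its G2 robust z-score lies at least 5 MADs above the screen median; here such calls match roughly 38% of GMNN control or more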

no.	Gene	reagent no.	G2 robust z-score	G2 cells, % of GMNN control	raw share of cells in G2 (%)	activity call
1	ZMYND19	1	-0.186	1.66	3.66	inactive
2	ZMYND19	2	-0.29	0.927	3.49	inactive
3	ZMYND19	3	0.484	6.37	5.76	inactive
4	LRRC10	1	5.18	39.4	17.3	active
5	LRRC10	2	-0.251	1.2	3.93	inactive
6	LRRC10	3	-0.973	-3.88	2.97	inactive
7	MCM2	1	-0.401	0.144	3.24	inactive
8	MCM2	2	0.697	7.87	8.59	inactive
9	MCM2	3	1.1	10.7	9.5	inactive
10	SNED1	1	-0.762	-2.39	5.08	inactive
11	SNED1	2	-0.759	-2.38	3.4	inactive
12	SNED1	3	1.2	11.4	7.74	inactive
13	CLEC4M	1	0.118	3.8	7.05	inactive
14	CLEC4M	2	0.213	4.47	5.81	inactive
15	CLEC4M	3	0.151	4.03	4.87	inactive
16	SRSF7	1	2.29	19.1	11.1	inactive
17	SRSF7	2	0.327	5.27	5.7	inactive
18	SRSF7	3	1.57	14	10.4	inactive
19	SYN3	1	1.1	10.7	8.53	inactive
20	SYN3	2	2.35	19.5	13.4	inactive
21	SYN3	3	-0.917	-3.49	4.04	inactive
22	PARP14	1	-0.914	-3.46	2.47	inactive
23	PARP14	2	-0.317	0.734	4.51	inactive
24	PARP14	3	-1.11	-4.83	3.76	inactive
25	ACE2	1	2.72	22.1	13.3	inactive
26	ACE2	2	0.352	5.44	6.83	inactive
27	ACE2	3	-0.841	-2.95	2.81	inactive
28	CYP19A1	1	1.31	12.2	9.32	inactive
29	CYP19A1	2	-1.13	-4.97	3.18	inactive
30	CYP19A1	3	1.67	14.7	9.17	inactive
31	PCDHGB7	1	-0.617	-1.38	5.83	inactive
32	PCDHGB7	2	-0.665	-1.71	3.83	inactive
33	PCDHGB7	3	1.75	15.2	10.7	inactive
34	FHOD1	1	2.87	23.2	11.6	inactive
35	FHOD1	2	-0.791	-2.6	3.33	inactive
36	FHOD1	3	1.95	16.7	13.7	inactive
37	MPP2	1	2.12	17.9	11.5	inactive
38	MPP2	2	-0.545	-0.865	5.12	inactive
39	MPP2	3	-0.536	-0.802	3.74	inactive
40	YIPF2	1	-0.38	0.296	4.71	inactive
41	YIPF2	2	-0.0639	2.52	5.74	inactive
42	YIPF2	3	3.28	26	9.57	inactive
43	TCTN3	1	-1.03	-4.29	2.8	inactive
44	TCTN3	2	-0.00492	2.93	5.21	inactive
45	TCTN3	3	-0.776	-2.49	2.43	inactive
46	DSG2	1	-0.164	1.81	4.72	inactive
47	DSG2	2	0.434	6.02	7.19	inactive
48	DSG2	3	0.378	5.62	6.97	inactive

Continued; the last 9 above are carried over.
no.	Gene	reagent no.	G2 robust z-score	G2 cells, % of GMNN control	raw share of cells in G2 (%)	activity call
40	YIPF2	1	-0.38	0.296	4.71	inactive
41	YIPF2	2	-0.0639	2.52	5.74	inactive
42	YIPF2	3	3.28	26	9.57	inactive
43	TCTN3	1	-1.03	-4.29	2.8	inactive
44	TCTN3	2	-0.00492	2.93	5.21	inactive
45	TCTN3	3	-0.776	-2.49	2.43	inactive
46	DSG2	1	-0.164	1.81	4.72	inactive
47	DSG2	2	0.434	6.02	7.19	inactive
48	DSG2	3	0.378	5.62	6.97	inactive
49	INO80B	1	-1.13	-4.99	2.45	inactive
50	INO80B	2	-0.35	0.504	3.61	inactive
51	INO80B	3	-1.17	-5.24	0.814	inactive
52	WFDC9	1	0.668	7.66	6.44	inactive
53	WFDC9	2	1.92	16.5	9.43	inactive
54	WFDC9	3	0.336	5.33	4.89	inactive
55	PDCL	1	-0.371	0.356	3.32	inactive
56	PDCL	2	-1.47	-7.4	2.41	inactive
57	PDCL	3	-0.909	-3.43	3.36	inactive
58	CUX1	1	-0.577	-1.09	4.57	inactive
59	CUX1	2	1.81	15.7	10.7	inactive
60	CUX1	3	0.573	7	6.51	inactive
61	IFNK	1	-0.724	-2.13	3.51	inactive
62	IFNK	2	-0.617	-1.37	3.8	inactive
63	IFNK	3	1.8	15.6	7.98	inactive
64	MT4	1	8.01	59.4	21.1	active
65	MT4	2	1.94	16.6	7.44	inactive
66	MT4	3	0.379	5.63	5.98	inactive
67	YPEL2	1	-0.107	2.21	4.53	inactive
68	YPEL2	2	-0.816	-2.78	2.2	inactive
69	YPEL2	3	1.51	13.6	10.5	inactive
70	SPATS1	1	1.13	10.9	7.54	inactive
71	SPATS1	2	2.19	18.4	9.42	inactive
72	SPATS1	3	-0.259	1.15	3.56	inactive
73	F8A2	1	1.24	11.7	8.15	inactive
74	F8A2	2	-0.487	-0.461	3.24	inactive
75	F8A2	3	-1.2	-5.48	1.26	inactive
76	ZNF711	1	-0.191	1.62	4.07	inactive
77	ZNF711	2	-0.152	1.9	6.83	inactive
78	ZNF711	3	-0.409	0.0868	3.38	inactive
79	TBCCD1	1	2.12	17.9	11.4	inactive
80	TBCCD1	2	-0.818	-2.79	2.98	inactive
81	TBCCD1	3	-0.884	-3.26	2.1	inactive
82	GALNT4	1	-1.28	-6.05	1.79	inactive
83	GALNT4	2	1.88	16.2	10.5	inactive
84	GALNT4	3	-0.871	-3.16	4.15	inactive
85	NTHL1	1	-0.448	-0.184	3.14	inactive
86	NTHL1	2	2.11	17.8	11.9	inactive
87	NTHL1	3	-0.212	1.47	5.35	inactive
